Data set [1] has as its target T7 RNA polymerase (bacteriophage T7) (UniProt P00573). Briefly: activity in cells. Conditions: protein in cells, protein details: expressed from phage DE2/DE3 or DE3 lysogen, only the site is given.
Data set [2] has the same target. Briefly: activity assay. Conditions: runoff transcription, 100 nM T7 RNAP, 37 C, purified recombinant protein.
Data set [3] has as its target Lac repressor (LacI) (UniProt P03023). Nature of the data set: inhibition of the protein. Conditions: purified recombinant protein, protein details: purified, from K. Matthews, Rice University.
Data set [4] shares this target. Briefly: activity in cells. The settings on record: protein in cells, protein details: expressed from plasmid lacI gene, only the site is given.
[5] abbreviates: gene 10 expression, little if any increase in lysozyme sensitivity, variant of pET-7.1 promoter.

Chains of the proteins cited; added tags and fusions are not shown. Lines headed by an entry give the natural chain unless they say otherwise; changes in a name come on top.
UniProt P00573: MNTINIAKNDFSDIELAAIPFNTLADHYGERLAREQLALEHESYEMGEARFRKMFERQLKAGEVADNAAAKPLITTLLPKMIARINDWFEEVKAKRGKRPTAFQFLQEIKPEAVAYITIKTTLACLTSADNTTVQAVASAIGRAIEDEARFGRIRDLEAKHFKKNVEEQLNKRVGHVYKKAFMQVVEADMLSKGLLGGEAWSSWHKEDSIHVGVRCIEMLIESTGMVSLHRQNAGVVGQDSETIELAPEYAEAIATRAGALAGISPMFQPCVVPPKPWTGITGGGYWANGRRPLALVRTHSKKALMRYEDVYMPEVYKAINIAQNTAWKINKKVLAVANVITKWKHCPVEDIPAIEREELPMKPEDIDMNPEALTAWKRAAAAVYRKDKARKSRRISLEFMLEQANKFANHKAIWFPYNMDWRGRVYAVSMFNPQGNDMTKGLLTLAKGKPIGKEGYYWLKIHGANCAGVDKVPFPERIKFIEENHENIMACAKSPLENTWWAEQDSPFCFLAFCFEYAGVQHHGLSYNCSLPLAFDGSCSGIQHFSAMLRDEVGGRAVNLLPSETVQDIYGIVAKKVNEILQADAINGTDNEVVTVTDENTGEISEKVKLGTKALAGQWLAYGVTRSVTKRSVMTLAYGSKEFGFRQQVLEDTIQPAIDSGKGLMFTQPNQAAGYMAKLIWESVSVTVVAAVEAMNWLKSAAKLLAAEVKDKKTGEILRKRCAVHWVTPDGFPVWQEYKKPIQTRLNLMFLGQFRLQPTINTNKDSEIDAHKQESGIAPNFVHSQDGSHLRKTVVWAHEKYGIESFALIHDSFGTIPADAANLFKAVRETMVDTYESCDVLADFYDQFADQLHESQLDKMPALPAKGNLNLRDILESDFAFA
UniProt P03023, whole entry: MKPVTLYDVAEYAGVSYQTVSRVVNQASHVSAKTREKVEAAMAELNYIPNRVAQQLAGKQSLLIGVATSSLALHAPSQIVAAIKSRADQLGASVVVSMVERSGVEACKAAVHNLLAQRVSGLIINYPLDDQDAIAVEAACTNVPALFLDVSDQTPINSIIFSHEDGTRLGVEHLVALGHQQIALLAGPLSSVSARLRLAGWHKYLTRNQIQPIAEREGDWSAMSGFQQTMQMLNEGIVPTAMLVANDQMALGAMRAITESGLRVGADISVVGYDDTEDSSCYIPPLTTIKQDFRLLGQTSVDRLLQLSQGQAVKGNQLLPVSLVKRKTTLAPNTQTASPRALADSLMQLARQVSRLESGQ

Consider seven sequences from US5824528.

For some of these results: Weaker means in comparison with the reference protein, sequence or condition of that experiment.

As for “TAATACGACTCACTATAGGAGAAGGCCTGGATCC (double strand) [pET-7.3 promoter]”, the functional effect result in data set [1] (setting [5]) is “active”.
Regarding “TAATACGACTCACTATAGGGAGAGGGGAATTGTGAGCGGATAACAATTCCCCTGGATCC (double strand) [T7lac21 promoter (operator at +21)]”, the functional effect entry in data set [2] is listed as “active”. Further, the “activity on this sequence” value is on record as “less active” in the data set with Lac repressor (LacI) [3] (140 nM repressor, less well repressed than T7lacL in vitro); “less active” in the data set with Lac repressor (LacI) [4] (pT7lac21-1: DE2 <0.01 without IPTG, less well repressed than T7lacL in vivo and in vitro).
Take “TAATACGACTCACTATAGGGAGACCACAACGGTTTCCCTCTAGCGGGATCC (double strand) [T7 phi10 promoter]”: the functional effect entry in data set [1] (beta-galactosidase 44,000 at 2 h with IPTG vs 140 for host) was “active”.
Take “TAATACGACTCACTATAGGGGAATTGTGAGCGGATAACAATTCCCCTGGATCC (double strand) [T7lac promoter (operator at +15, rightward)]”: the functional effect entry in data set [2] is listed as “active”; in data set [1] (pT7lac-1b 30,000 at 2 h with IPTG, more sensitive to T7 lysozyme than phi10), “active”. Also, the “activity on this sequence” value with Lac repressor (LacI) [3] (runoff transcription by T7 RNAP repressed, 140 nM repressor, IPTG 1 mM control, 37 C) was “active”; with Lac repressor (LacI) [4] (beta-galactosidase from pT7lac-1b: 200 uninduced vs 30,000 with IPTG at 2 h) it was “active”.
As to “TAATACGACTCACTATAGGGGAATTGTTATCCGCTCACAATTCCCCTGGATCC (double strand) [T7lacL promoter (operator at +15, leftward)]”, the functional effect entry is “active” in data set [2] and “active” in data set [1] (gene 10 expression, sensitive to T7 lysozyme). The “activity on this sequence” value in the data set with Lac repressor (LacI) [3] (runoff transcription by T7 RNAP repressed, 70 nM repressor, IPTG 1 mM control, 4 mM MgCl2, 37 C) is listed as “active”; with Lac repressor (LacI) [4] (pT7lacL-1/-2: DE2 and DE3 plate normally without IPTG, <0.01 with IPTG), “active”.
With “TAATACGACTCACTATAGGGGAAGGCCTGGATCC (double strand) [pET-7.2 promoter]”, the functional effect entry in data set [1] (setting [5]) is “active”.
For “AGATCTCGATCCCGCGAAATTAATACGACTCACTATAGGCCTGGATCC (double strand) [pET-7 promoter (no operator)]”, the functional effect entry in data set [2] (only the site is given) is reported as “active”; in data set [1] (DE2/DE3 plating <0.01, gene 10 expression sensitive to T7 lysozyme), “active”.
